This note sets out measurements from paper PMC5078048.

The chains behind the UniProt entries cited, without tags or fusion partners.
UniProt Q99081: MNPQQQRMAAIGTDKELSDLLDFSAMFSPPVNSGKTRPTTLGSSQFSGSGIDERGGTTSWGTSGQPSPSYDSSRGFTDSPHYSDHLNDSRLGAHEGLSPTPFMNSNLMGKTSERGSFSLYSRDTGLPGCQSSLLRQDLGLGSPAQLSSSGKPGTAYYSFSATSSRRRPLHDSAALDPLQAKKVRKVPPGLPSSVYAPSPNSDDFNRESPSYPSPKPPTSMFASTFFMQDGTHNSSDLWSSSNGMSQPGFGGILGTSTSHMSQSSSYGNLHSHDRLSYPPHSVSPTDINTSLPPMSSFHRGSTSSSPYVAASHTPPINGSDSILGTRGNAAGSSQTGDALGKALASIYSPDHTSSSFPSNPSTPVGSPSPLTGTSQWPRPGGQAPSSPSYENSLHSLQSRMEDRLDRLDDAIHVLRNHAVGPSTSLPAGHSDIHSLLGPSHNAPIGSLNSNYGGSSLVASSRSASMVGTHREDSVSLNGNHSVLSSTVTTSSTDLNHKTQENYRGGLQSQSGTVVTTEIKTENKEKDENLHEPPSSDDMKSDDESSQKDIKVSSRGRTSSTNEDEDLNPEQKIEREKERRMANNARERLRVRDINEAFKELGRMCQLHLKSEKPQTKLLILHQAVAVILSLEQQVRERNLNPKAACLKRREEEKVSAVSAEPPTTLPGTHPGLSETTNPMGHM
UniProt Q13547: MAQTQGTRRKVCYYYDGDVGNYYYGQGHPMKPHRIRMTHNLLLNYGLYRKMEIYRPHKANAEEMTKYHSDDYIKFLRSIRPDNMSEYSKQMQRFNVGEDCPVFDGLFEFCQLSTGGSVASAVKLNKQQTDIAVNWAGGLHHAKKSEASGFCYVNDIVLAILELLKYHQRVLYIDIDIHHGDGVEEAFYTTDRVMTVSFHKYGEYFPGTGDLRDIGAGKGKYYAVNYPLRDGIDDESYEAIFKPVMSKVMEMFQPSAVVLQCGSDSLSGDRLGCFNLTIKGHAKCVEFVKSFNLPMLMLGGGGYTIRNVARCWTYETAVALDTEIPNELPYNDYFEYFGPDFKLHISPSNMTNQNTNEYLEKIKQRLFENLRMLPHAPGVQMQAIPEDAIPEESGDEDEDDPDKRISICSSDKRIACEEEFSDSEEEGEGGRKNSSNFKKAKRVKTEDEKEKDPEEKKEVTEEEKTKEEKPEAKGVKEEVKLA

These are yes or no findings as the source states them, for the method shown. In cells and extracts the contact can be indirect. Some binding calls cover weakened binding; strength is not graded here.

This test deals with TCF-12 (human (endogenous in GBC-SD)) (UniProt Q99081). Put plainly: co-IP; proteins from GBC-SD cells; TCF-12 antibody against non-specific IgG control; mRIPA buffer (50 mM Tris pH 7.5, 150 mM NaCl, 5 mM EDTA, 0.1% Triton-X100, 0.1% Nonidet P-40), Protein-A agarose beads, 4°C; western blot.

For HDAC1 (from UniProt Q13547 1-482), the binding result is on record as “binds”.
